Data published in patent US11505530B2, “1,8-naphthalimide derivative, preparation method therefor and use thereof” (SOOCHOW UNIVERSITY, priority 2018, dated 2022).

Experiments:
[1] = Fluorescence spectrum response of BNGT to different metal ions (selectivity and sensitivity); settings: acetonitrile/water 1/99
[2] = Fluorescence titration with Cu^2+: linear range and detection limit; settings: acetonitrile/water 1/99; titration and blank experiments
[3] = Analysis of Cu^2+ in spiked pond water and tap water samples
[4] = BNGT 10 μm, metal ions 100 μm, excitation 345 nm, 25° C.

CCCCN1C(=O)c2cccc3c(NN=CC=NC(CO)(CO)CO)ccc(c23)C1=O [BNGT]
enhancement of fluorescence intensity by Cu^2+ at 392 nm [1, 4]: 9.2 times
enhancement of fluorescence intensity by Cu^2+ at 754 nm [1, 4]: 9.4 times
fluorescence response to other individual metal ions ([1]; Fe^3+, K^+, Na^+, Mg^2+, Ni^2+, Ag^+, Cr^3+, Cd^2+, Co^2+, Zn^2+, Mn^2+, Fe^2+, Ca^2+, Hg^2+, Pb^2+): did not respond to other individual metals
detection limit for Cu^2+ at 392 nm [2]: 2.6368e-07 mol/L
detection limit for Cu^2+ at 754 nm [2]: 2.0156e-07 mol/L
Detected Cu^2+ ([3]; 392 nm, pond water, added Cu^2+ 15): 14.77 10^−6 mol/L
Detected Cu^2+ ([3]; 392 nm, pond water, added Cu^2+ 20): 20.69 10^−6 mol/L
Detected Cu^2+ ([3]; 392 nm, tap water, added Cu^2+ 15): 14.96 10^−6 mol/L
Detected Cu^2+ ([3]; 392 nm, tap water, added Cu^2+ 20): 20.31 10^−6 mol/L
Detected Cu^2+ ([3]; 754 nm, pond water, added Cu^2+ 15): 14.57 10^−6 mol/L
Detected Cu^2+ ([3]; 754 nm, pond water, added Cu^2+ 20): 20.13 10^−6 mol/L
Detected Cu^2+ ([3]; 754 nm, tap water, added Cu^2+ 15): 14.80 10^−6 mol/L
Detected Cu^2+ ([3]; 754 nm, tap water, added Cu^2+ 20): 20.40 10^−6 mol/L
